Experimental data taken from the supplement of paper PMC10849652.
The list shows a part of the results. Residues, ends and D or L forms follow the SMILES beside them. *: point of attachment. Cbz = O=C(OCc1ccccc1)*

The chains behind the UniProt entries cited, without tags or fusion partners. Where a name states a change or a piece, a line headed by the entry shows the natural chain unless it says otherwise.
UniProt Q9UHB6: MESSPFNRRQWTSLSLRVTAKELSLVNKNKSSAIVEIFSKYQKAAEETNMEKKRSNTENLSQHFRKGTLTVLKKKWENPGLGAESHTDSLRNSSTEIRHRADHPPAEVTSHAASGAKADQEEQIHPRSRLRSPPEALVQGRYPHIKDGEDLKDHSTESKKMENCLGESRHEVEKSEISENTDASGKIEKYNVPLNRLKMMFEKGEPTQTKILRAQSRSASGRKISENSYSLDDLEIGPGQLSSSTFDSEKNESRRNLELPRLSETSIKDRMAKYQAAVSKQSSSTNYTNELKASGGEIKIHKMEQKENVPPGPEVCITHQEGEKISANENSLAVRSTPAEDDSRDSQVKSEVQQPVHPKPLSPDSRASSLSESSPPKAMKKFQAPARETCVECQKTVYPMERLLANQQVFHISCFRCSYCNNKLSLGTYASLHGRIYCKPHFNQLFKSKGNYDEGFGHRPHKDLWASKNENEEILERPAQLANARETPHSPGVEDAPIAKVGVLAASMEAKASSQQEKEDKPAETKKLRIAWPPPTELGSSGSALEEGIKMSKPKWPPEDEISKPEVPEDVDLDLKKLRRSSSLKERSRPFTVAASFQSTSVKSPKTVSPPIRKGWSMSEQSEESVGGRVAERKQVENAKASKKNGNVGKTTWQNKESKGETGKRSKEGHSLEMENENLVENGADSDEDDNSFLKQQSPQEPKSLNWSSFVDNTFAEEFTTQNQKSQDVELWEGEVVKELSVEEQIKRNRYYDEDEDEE
UniProt Q6P1M3: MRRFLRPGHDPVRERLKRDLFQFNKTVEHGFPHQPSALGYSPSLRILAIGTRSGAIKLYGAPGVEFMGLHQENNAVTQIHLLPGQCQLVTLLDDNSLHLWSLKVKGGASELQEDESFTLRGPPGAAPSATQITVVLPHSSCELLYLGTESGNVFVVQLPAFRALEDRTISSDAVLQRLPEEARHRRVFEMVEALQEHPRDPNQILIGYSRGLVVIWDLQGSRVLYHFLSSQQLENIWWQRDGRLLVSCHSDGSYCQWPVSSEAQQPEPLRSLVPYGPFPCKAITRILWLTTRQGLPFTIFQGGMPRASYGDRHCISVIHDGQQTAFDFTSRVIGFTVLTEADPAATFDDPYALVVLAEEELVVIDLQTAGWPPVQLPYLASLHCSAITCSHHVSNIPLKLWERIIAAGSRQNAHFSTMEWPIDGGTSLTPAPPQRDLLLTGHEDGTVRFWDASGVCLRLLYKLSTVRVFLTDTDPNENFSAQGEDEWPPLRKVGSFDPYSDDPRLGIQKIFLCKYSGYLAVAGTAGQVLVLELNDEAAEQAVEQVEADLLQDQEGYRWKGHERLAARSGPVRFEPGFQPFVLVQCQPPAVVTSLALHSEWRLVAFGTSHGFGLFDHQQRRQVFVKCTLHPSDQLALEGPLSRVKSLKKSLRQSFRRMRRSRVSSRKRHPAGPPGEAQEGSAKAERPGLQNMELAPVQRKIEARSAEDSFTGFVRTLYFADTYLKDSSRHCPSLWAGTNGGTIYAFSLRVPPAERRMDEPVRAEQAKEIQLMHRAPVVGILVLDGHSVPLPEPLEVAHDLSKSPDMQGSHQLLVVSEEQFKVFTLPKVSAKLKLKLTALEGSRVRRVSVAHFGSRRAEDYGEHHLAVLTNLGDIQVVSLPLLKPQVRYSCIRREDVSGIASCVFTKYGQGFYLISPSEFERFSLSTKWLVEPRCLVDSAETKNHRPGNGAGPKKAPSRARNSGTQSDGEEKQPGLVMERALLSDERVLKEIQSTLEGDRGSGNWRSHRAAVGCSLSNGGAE
UniProt Q8WVP7: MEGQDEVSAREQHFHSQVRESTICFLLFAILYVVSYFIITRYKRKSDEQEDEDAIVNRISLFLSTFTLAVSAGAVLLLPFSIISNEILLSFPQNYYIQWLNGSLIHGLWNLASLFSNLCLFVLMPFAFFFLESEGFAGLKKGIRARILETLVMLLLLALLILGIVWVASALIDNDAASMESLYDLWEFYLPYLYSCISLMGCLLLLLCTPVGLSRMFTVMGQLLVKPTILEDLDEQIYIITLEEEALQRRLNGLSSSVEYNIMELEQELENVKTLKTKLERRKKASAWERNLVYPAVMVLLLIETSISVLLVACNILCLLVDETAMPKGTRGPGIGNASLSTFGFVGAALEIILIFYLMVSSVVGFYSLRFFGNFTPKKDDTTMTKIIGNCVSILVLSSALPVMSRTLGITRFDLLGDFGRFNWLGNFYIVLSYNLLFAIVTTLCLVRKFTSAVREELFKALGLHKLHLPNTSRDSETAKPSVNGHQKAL
UniProt Q8NG48: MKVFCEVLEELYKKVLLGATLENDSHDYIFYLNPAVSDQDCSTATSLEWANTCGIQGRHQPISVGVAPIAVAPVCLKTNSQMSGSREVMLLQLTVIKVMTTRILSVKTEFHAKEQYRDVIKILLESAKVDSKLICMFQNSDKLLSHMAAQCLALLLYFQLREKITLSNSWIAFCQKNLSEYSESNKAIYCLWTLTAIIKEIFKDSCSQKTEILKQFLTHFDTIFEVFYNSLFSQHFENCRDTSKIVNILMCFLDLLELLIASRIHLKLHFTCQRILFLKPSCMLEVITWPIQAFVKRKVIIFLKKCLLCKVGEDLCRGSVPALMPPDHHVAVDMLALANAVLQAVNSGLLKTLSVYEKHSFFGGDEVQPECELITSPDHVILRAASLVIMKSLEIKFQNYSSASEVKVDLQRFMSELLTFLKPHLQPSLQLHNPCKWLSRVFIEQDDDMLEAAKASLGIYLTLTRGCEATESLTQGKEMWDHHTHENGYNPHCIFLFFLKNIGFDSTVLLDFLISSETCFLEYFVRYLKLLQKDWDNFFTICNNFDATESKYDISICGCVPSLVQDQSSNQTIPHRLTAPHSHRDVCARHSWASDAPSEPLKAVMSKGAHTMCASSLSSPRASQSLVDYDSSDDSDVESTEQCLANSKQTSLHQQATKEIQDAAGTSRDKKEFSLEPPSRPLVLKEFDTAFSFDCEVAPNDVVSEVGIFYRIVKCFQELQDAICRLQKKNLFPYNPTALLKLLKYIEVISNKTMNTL
UniProt Q6ZUX7: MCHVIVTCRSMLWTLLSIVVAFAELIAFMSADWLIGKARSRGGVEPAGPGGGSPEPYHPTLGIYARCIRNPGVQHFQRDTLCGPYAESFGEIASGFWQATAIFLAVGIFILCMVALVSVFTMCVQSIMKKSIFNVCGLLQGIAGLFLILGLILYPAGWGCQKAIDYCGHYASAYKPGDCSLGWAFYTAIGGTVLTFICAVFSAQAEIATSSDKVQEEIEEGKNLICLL
UniProt Q9BQD3: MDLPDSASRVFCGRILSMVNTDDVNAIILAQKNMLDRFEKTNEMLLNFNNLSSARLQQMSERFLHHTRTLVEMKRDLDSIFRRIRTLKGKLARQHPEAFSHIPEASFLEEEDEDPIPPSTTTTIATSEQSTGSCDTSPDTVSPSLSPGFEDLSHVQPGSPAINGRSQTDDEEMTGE
UniProt O43766: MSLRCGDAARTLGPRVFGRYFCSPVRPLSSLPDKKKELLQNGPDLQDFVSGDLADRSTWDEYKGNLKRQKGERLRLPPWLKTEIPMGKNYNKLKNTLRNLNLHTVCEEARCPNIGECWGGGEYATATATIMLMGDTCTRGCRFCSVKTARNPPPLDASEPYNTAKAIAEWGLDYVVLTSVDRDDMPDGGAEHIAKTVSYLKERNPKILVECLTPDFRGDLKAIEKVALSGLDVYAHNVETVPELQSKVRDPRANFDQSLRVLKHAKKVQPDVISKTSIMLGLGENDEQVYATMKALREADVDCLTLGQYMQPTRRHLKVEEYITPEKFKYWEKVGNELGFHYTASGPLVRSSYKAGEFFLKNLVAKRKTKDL
UniProt Q9H9P8: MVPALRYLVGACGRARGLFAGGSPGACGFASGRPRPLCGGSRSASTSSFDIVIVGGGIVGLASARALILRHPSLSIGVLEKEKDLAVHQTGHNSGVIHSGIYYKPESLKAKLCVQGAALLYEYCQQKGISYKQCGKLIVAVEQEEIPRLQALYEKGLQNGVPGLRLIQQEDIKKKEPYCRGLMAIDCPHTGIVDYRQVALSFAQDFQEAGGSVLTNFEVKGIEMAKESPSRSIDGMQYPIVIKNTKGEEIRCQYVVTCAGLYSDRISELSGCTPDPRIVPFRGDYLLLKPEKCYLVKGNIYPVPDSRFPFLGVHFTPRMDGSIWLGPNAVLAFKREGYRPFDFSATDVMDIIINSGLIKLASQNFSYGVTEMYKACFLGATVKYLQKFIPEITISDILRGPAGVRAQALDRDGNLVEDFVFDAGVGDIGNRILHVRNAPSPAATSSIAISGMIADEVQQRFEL
UniProt Q9Y546: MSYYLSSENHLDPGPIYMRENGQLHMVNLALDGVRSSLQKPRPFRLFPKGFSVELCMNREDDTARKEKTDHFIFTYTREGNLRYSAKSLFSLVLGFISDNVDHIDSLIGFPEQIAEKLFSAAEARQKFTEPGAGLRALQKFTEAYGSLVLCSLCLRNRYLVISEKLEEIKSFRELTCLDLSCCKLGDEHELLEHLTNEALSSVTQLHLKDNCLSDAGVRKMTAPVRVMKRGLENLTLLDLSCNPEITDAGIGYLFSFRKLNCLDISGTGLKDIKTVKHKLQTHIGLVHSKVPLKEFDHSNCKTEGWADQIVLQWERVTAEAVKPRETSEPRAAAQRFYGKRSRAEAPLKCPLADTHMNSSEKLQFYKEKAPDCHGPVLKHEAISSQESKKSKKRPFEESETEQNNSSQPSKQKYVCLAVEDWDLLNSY
UniProt O15243: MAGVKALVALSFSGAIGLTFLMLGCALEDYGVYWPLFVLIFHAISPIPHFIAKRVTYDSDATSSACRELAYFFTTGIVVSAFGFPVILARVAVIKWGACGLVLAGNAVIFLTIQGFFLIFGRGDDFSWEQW
UniProt Q9P244: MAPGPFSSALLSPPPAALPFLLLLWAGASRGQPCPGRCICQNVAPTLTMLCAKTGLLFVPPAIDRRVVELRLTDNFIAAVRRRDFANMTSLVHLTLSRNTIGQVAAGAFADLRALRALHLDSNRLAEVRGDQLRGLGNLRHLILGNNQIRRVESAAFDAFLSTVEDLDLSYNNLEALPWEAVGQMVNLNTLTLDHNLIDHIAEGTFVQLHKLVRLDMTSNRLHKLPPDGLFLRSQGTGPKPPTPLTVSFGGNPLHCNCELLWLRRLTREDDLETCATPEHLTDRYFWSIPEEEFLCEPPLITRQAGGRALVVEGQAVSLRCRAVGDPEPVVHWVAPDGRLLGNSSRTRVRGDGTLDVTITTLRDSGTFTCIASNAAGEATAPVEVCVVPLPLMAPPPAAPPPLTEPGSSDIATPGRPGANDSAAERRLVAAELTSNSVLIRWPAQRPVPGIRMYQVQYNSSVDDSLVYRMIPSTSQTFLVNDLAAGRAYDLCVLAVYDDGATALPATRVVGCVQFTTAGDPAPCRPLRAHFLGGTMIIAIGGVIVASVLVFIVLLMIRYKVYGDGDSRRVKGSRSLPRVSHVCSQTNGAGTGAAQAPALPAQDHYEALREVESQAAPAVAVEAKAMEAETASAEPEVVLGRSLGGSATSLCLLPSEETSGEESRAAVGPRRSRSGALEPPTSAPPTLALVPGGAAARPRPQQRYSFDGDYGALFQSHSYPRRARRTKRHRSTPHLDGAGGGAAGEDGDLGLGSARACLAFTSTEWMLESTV
UniProt Q5SW96: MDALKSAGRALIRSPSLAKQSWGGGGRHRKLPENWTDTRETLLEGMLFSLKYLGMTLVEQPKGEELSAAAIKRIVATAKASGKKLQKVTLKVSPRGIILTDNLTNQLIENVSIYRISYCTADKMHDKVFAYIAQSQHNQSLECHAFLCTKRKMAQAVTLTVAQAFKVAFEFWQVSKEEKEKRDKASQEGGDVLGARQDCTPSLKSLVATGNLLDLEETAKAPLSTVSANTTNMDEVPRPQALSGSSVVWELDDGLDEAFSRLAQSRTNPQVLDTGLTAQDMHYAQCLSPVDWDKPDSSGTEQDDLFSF
UniProt O60294: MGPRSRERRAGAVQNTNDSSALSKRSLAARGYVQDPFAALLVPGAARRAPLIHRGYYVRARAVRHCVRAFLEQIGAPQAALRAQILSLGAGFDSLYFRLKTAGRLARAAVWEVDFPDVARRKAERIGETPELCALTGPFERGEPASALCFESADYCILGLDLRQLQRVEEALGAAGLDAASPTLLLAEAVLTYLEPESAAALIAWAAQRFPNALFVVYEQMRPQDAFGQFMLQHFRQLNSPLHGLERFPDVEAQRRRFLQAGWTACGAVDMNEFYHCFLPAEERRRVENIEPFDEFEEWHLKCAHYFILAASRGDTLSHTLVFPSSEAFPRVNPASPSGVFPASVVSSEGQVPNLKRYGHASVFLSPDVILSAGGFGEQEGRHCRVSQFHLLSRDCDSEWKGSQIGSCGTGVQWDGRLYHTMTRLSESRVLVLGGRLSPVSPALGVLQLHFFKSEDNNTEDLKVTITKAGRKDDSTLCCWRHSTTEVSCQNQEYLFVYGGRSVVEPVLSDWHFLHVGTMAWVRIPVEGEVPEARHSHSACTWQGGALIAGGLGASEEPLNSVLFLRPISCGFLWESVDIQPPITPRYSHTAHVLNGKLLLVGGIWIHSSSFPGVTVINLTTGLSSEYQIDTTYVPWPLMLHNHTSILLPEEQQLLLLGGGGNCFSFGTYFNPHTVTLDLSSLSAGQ

Legend:
Experiment in all cases: log2 fold change, soluble protein after heating vs DMSO (PISA); higher = thermal stabilisation; K562 cells, 10 uM, 30 min; active = over 0.2 and 3.5 SD of the protein, either way, in both replicates (recomputed)
erlotinib = compound: C#Cc1cccc(Nc2ncnc3cc(OCCOC)c(OCCOC)cc23)c1 [erlotinib]
Outline: (§1)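 Soluble protein was quantified by TMTpro 16plex LC-MS/MS after channel sums were equalised. It was obtained as the supernatant after 21,000xg for 90 min from pooled aliquots of K562 cells (2×10^6 cells/mL, 10 μM compound, 30 min) heated for 3 min across 48°C-58°C and extracted in PBS with 0.5% NP-40 at 4°C. Thermal stability values are relative to control samples and come from duplicates. They are given as log2 fold changes.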

[1] = compound: C/C(=N\NC(=O)C1=CC(=CC=C1)S(=O)(=O)N2CCOCC2)/C3=C(C=CC(=C3)Cl)O
Outline: as §1

[2] = compound: C1=CC(=C(C=C1Cl)C2=NC3=NC=CN=C3C(=N2)NC4=CC=NC=C4)F
Outline: as §1

[3] = compound: C1=CC(=CC=C1C2=NC3=C(N2)C=C(C=C3)C(=O)N)OC4=CC=C(C=C4)Cl
Outline: as §1

[4] = compound: C1=CC2=C(C=CC(=C2)/C=C\3/C(=O)NC(=NCC4=CC=CS4)S3)N=C1
Outline: as §1

[5] = compound: C1=CC2=NC=CN=C2C=C1/C=C/3\C(=O)NC(=O)S3
Outline: as §1

[6] = compound: C1=CC=C(C=C1)C2=NC(=C(N2)C3=CC=NC=C3)C4=CC(=C(C=C4)Cl)O
Outline: as §1

[7] = compound: C1=CC=C2C(=C1)C3=NNC4=CC=CC(=C43)C2=O
Outline: as §1

[8] = compound: C1CCN(C1)C(=O)NC2=CC=CC(=C2)NC3=NC=C(C(=N3)NCCC4=CN=CN4)Br
Outline: as §1

[9] = compound: C1CN(CCC1(CC2=CC=C(C=C2)Cl)N)C3=NC=NC4=C3C=CN4
Outline: as §1

IRAK-1-4 Inhibitor I = compound: C1COCCN1CCN2C3=CC=CC=C3N=C2NC(=O)C4=CC(=CC=C4)[N+](=O)[O-] [IRAK-1-4 Inhibitor I]
Outline: as §1

ibrutinib = compound: C=CC(=O)N1CCC[C@@H](n2nc(-c3ccc(Oc4ccccc4)cc3)c3c(N)ncnc32)C1 [ibrutinib]
Outline: as §1

[10] = compound: CC(=O)c1cnc2ccc(-c3cc(Cl)c(O)c(Cl)c3)nc2c1N[C@H]1CC[C@H](CN(C)C)CC1
Outline: as §1

ralimetinib = compound: CC(C)(C)Cn1c(N)nc2ccc(-c3[nH]c(C(C)(C)C)nc3-c3ccc(F)cc3)nc21 [ralimetinib]
Outline: as §1

[11] = compound: CC(C)(O)CC(=O)NCCn1ccc2ncnc(Nc3ccc(Oc4cccc(C(F)(F)F)c4)c(Cl)c3)c21
Outline: as §1

[12] = compound: CC(C)C1=C2N=C(C=C(N2N=C1)NCC3=CC=CC=C3)NCCCCCCN
Outline: as §1

[13] = compound: CC(C)C[C@@H](C=O)NC(=O)[C@H](CC(C)C)NC(=O)[C@H](CC(C)C)NC(=O)OCc1ccccc1
Outline: as §1

pinometostat = compound: CC(C)N(C[C@H]1O[C@@H](n2cnc3c(N)ncnc32)[C@H](O)[C@@H]1O)[C@H]1C[C@@H](CCc2nc3cc(C(C)(C)C)ccc3[nH]2)C1 [pinometostat]
Outline: as §1

[14] = compound: CC1=C(C2=C(C=C1)C(=O)C3=CC=CC=C3N2CCCN)C
Outline: as §1

[15] = compound: CC1=C(C(CC(=O)N1)C2=CC=C(C=C2)C(F)(F)F)C(=O)NC3=C(C=C4C(=C3)C=NN4)F
Outline: as §1

Target	log2 fold change (erlotinib)	log2 fold change [1]	log2 fold change [2]	log2 fold change [3]	log2 fold change [4]	log2 fold change [5]	log2 fold change [6]	log2 fold change [7]	log2 fold change [8]	log2 fold change [9]	log2 fold change (IRAK-1-4 Inhibitor I)	log2 fold change (ibrutinib)	log2 fold change [10]	log2 fold change (ralimetinib)	log2 fold change [11]	log2 fold change [12]	log2 fold change [13]	log2 fold change (pinometostat)	log2 fold change [14]	log2 fold change [15]
LIMA1 isoform 4 (UniProt Q9UHB6)	inactive: -0.015	inactive: -0.062	inactive: -0.039	inactive: 0.069	inactive: 0.038	inactive: -0.015	inactive: 0.022	inactive: 0.054	inactive: 0	inactive: -0.039	inactive: -0.031	inactive: 0.033	active: -0.267	inactive: 0.011	inactive: 0.114	inactive: 0.206	inactive: -0.03	inactive: 0.006	inactive: 0.049	
LLGL2 (UniProt Q6P1M3)	inactive: 0.16	inactive: -0.062	inactive: 0.022	inactive: 0.022	inactive: -0.009	inactive: 0.03	inactive: -0.257	inactive: 0.023			inactive: 0.097	inactive: -0.024	inactive: 0.09	inactive: 0.091	inactive: 0.01	inactive: 0.085	inactive: -0.101	inactive: 0.009		inactive: 0.043
LGALS8 isoform 2 (UniProt O00214)	inactive: -0.011	inactive: -0.034	inactive: -0.282	inactive: 0.062	inactive: -0.038	inactive: -0.059		inactive: 0.036	inactive: 0.043	inactive: 0.039	inactive: -0.027	inactive: -0.262	inactive: 0.049		inactive: 0.092	inactive: 0.123		inactive: 0.11	inactive: 0.096	
LMBR1 isoform 3 (UniProt Q8WVP7)	inactive: 0.148	inactive: -0.016	inactive: -0.034	inactive: 0.071	inactive: -0.046	inactive: 0.081	inactive: -0.14	inactive: -0.013	inactive: 0.037	inactive: 0.15	inactive: -0.013	inactive: -0.006	inactive: -0.054	inactive: -0.02	inactive: -0.037	inactive: -0.453	inactive: -0.004	inactive: 0.012	inactive: -0.244	
LINS1 (UniProt Q8NG48)	inactive: 0.032	inactive: 0.312	inactive: 0.281	inactive: -0.027	inactive: -0.236	inactive: -0.033	inactive: -0.137	inactive: 0.026			inactive: -0.037	inactive: 0.003	inactive: 0.248	inactive: -0.083	inactive: 0.046	inactive: -0.138	inactive: 0.105	inactive: -0.041		
LMBRD1 (UniProt Q9NUN5)	inactive: 0.075	inactive: -0.055	inactive: 0.211	inactive: -0.014	inactive: 0.226	inactive: 0.113	inactive: -0.051	inactive: -0.027	inactive: -0.142	inactive: 0.033		inactive: 0.036	inactive: 0.026	inactive: 0.088	inactive: -0.059	active: -0.708	inactive: -0.022		inactive: -0.086	
LARP1 (UniProt Q6PKG0)	inactive: -0.051	inactive: 0.002	inactive: -0.11	inactive: 0.085	inactive: -0.025	inactive: -0.001	inactive: -0.081	inactive: -0.067	inactive: 0.046	inactive: -0.172	inactive: -0.131	inactive: 0.009	inactive: -0.059	inactive: 0.031	inactive: 0	inactive: -0.088	inactive: 0.036	inactive: 0.109	active: -0.303	
LHFPL2 (UniProt Q6ZUX7)	inactive: 0.078		inactive: -0.169	inactive: 0.216					inactive: -0.024	inactive: 0.111					inactive: 0.092	inactive: -0.266			inactive: 0.063	
KXD1 (UniProt Q9BQD3)	inactive: 0.069	inactive: 0.018	inactive: 0.011	inactive: -0.005	inactive: 0.083	inactive: 0.024	inactive: 0.01	inactive: 0.018	inactive: 0.022	inactive: 0.036		inactive: 0.092	inactive: -0.073	inactive: -0.053	inactive: 0.034	inactive: -0.181	inactive: 0.041		inactive: 0.057	
LIAS (UniProt O43766)	inactive: 0.068	active: -0.24	inactive: 0.011	inactive: 0.019	inactive: 0.014	inactive: 0.007	inactive: -0.273	inactive: 0.009	inactive: 0.028	inactive: 0	inactive: 0.029	inactive: 0.005	inactive: 0.101	inactive: -0.212	inactive: -0.003	inactive: -0.023	inactive: 0.131	inactive: -0.011	inactive: -0.01	
LMBRD2 (UniProt Q68DH5)	inactive: 0.015	inactive: -0.007	inactive: 0.097	inactive: 0.011	inactive: 0.022	inactive: 0.038	inactive: 0.016	inactive: -0.118	inactive: -0.073	inactive: 0.1	inactive: 0.14	inactive: -0.034	inactive: 0.034	inactive: -0.016	inactive: -0.021	active: -0.244	inactive: -0.093	inactive: 0.037	inactive: 0.012	
L2HGDH (UniProt Q9H9P8)	inactive: 0.027	inactive: 0.169	inactive: 0.009	inactive: 0.043	inactive: 0.07	inactive: 0.01	inactive: 0.05	inactive: 0.093	inactive: -0.005	inactive: -0.007	inactive: 0.095	inactive: 0.028	inactive: -0.065	inactive: 0.003	inactive: -0.092	inactive: -0.069	inactive: -0.026	inactive: 0	inactive: 0.029	
LRRC14 (UniProt Q15048)	inactive: -0.05	inactive: 0.003		inactive: 0.068	inactive: 0.108	inactive: 0.222		inactive: -0.046	inactive: -0.08	inactive: -0.028	inactive: -0.015	inactive: -0.118	inactive: 0.032			inactive: 0.111		inactive: 0.033	inactive: 0.152	inactive: 0.022
LRRC42 (UniProt Q9Y546)	inactive: -0.01	inactive: -0.301		inactive: 0.011	inactive: 0.398	inactive: 0.161	inactive: -0.082	inactive: 0.004	inactive: 0.023	inactive: 0.099		inactive: 0.156	inactive: -0.262	inactive: 0.121		inactive: -0.003	inactive: 0.048		inactive: -0.012	
LIG3 (UniProt P49916)	inactive: 0.344	inactive: -0.241		inactive: 0.315	inactive: -0.099			inactive: 0.01					inactive: 0.146			inactive: -0.023				inactive: -0.072
LEPROT (UniProt O15243)	inactive: 0.06	inactive: 0.034	inactive: 0.081	inactive: 0.088	inactive: 0.119			inactive: -0.058	inactive: -0.011	inactive: 0.001			inactive: -0.037		inactive: 0.142	active: -0.777			inactive: 0.092	
LMTK2 (UniProt Q8IWU2)	inactive: -0.055	inactive: -0.032	inactive: -0.02	inactive: -0.051	inactive: 0.035	inactive: 0.133	inactive: 0.055	inactive: 0.011	inactive: -0.021	inactive: -0.009	inactive: -0.025	inactive: -0.237	inactive: -0.118	inactive: 0.059	inactive: 0.098	inactive: -0.185	inactive: 0.143	inactive: 0.113	inactive: -0.06	
LRFN1 (UniProt Q9P244)	inactive: 0.059		inactive: -0.028	inactive: 0		inactive: 0.004	inactive: -0.038		inactive: -0.1	inactive: 0.052	inactive: 0.105	inactive: -0.018		inactive: -0.009	inactive: 0.073	inactive: 0.107	inactive: 0.061	inactive: 0.029	inactive: 0.008	
LDLRAP1 (UniProt Q5SW96)	inactive: -0.017			inactive: 0.252		inactive: 0.199	inactive: -0.118				inactive: 0.013	inactive: -0.177		inactive: -0.032		active: -0.541	inactive: 0.028	inactive: 0.318		
LCMT2 (UniProt O60294)	inactive: 0.125		inactive: 0.083	inactive: -0.073		inactive: -0.211					inactive: 0.042	inactive: 0.033			inactive: 0.01	inactive: -0.073		inactive: 0.044		inactive: -0.143
LAMA5 (UniProt O15230)	inactive: -0.161	inactive: -0.157	inactive: 0.037	inactive: 0.151	inactive: -0.06			inactive: -0.235	inactive: -0.248	inactive: 0.009			inactive: -0.055		inactive: 0.03	inactive: -0.222			inactive: -0.182	inactive: -0.177

Six entries from above, set out differently.
Target | log2 fold change (erlotinib) | log2 fold change [1] | log2 fold change [2] | log2 fold change [3] | log2 fold change [4] | log2 fold change [5] | log2 fold change [6] | log2 fold change [7] | log2 fold change [8] | log2 fold change [9] | log2 fold change (IRAK-1-4 Inhibitor I) | log2 fold change (ibrutinib) | log2 fold change [10] | log2 fold change (ralimetinib) | log2 fold change [11] | log2 fold change [12] | log2 fold change [13] | log2 fold change (pinometostat) | log2 fold change [14] | log2 fold change [15]
KXD1 (UniProt Q9BQD3) | inactive: 0.069 | inactive: 0.018 | inactive: 0.011 | inactive: -0.005 | inactive: 0.083 | inactive: 0.024 | inactive: 0.01 | inactive: 0.018 | inactive: 0.022 | inactive: 0.036 |  | inactive: 0.092 | inactive: -0.073 | inactive: -0.053 | inactive: 0.034 | inactive: -0.181 | inactive: 0.041 |  | inactive: 0.057 | 
LIAS (UniProt O43766) | inactive: 0.068 | active: -0.24 | inactive: 0.011 | inactive: 0.019 | inactive: 0.014 | inactive: 0.007 | inactive: -0.273 | inactive: 0.009 | inactive: 0.028 | inactive: 0 | inactive: 0.029 | inactive: 0.005 | inactive: 0.101 | inactive: -0.212 | inactive: -0.003 | inactive: -0.023 | inactive: 0.131 | inactive: -0.011 | inactive: -0.01 | 
LMBRD2 (UniProt Q68DH5) | inactive: 0.015 | inactive: -0.007 | inactive: 0.097 | inactive: 0.011 | inactive: 0.022 | inactive: 0.038 | inactive: 0.016 | inactive: -0.118 | inactive: -0.073 | inactive: 0.1 | inactive: 0.14 | inactive: -0.034 | inactive: 0.034 | inactive: -0.016 | inactive: -0.021 | active: -0.244 | inactive: -0.093 | inactive: 0.037 | inactive: 0.012 | 
L2HGDH (UniProt Q9H9P8) | inactive: 0.027 | inactive: 0.169 | inactive: 0.009 | inactive: 0.043 | inactive: 0.07 | inactive: 0.01 | inactive: 0.05 | inactive: 0.093 | inactive: -0.005 | inactive: -0.007 | inactive: 0.095 | inactive: 0.028 | inactive: -0.065 | inactive: 0.003 | inactive: -0.092 | inactive: -0.069 | inactive: -0.026 | inactive: 0 | inactive: 0.029 | 
LRRC14 (UniProt Q15048) | inactive: -0.05 | inactive: 0.003 |  | inactive: 0.068 | inactive: 0.108 | inactive: 0.222 |  | inactive: -0.046 | inactive: -0.08 | inactive: -0.028 | inactive: -0.015 | inactive: -0.118 | inactive: 0.032 |  |  | inactive: 0.111 |  | inactive: 0.033 | inactive: 0.152 | inactive: 0.022
LRRC42 (UniProt Q9Y546) | inactive: -0.01 | inactive: -0.301 |  | inactive: 0.011 | inactive: 0.398 | inactive: 0.161 | inactive: -0.082 | inactive: 0.004 | inactive: 0.023 | inactive: 0.099 |  | inactive: 0.156 | inactive: -0.262 | inactive: 0.121 |  | inactive: -0.003 | inactive: 0.048 |  | inactive: -0.012 | 
